Source: paper PMC8255318
No constants are given. Whether binding was seen depends on the method and setting. In cells and extracts the contact can be indirect. Some binding calls cover weakened binding; strength is not graded here.

Chains of the proteins cited; added tags and fusions are not shown.
UniProt Q04206: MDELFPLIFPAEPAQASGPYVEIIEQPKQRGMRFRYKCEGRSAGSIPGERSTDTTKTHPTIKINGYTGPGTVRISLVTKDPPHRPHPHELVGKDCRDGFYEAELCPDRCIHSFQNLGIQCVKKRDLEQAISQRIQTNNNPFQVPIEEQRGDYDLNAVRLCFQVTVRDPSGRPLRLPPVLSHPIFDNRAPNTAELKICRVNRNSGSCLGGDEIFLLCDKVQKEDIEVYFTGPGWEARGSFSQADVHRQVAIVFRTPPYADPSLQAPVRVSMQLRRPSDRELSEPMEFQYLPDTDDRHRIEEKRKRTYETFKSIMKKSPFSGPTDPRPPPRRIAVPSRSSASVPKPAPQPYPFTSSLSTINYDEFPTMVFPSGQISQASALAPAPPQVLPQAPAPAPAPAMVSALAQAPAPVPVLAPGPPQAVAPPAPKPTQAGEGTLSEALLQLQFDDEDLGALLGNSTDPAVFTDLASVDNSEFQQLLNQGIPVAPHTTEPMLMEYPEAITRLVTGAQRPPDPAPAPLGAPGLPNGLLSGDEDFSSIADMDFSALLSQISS

Biological target: T1, Kinectin 1 (KTN1) (human) (UniProt Q86UP2)
T1 sequence: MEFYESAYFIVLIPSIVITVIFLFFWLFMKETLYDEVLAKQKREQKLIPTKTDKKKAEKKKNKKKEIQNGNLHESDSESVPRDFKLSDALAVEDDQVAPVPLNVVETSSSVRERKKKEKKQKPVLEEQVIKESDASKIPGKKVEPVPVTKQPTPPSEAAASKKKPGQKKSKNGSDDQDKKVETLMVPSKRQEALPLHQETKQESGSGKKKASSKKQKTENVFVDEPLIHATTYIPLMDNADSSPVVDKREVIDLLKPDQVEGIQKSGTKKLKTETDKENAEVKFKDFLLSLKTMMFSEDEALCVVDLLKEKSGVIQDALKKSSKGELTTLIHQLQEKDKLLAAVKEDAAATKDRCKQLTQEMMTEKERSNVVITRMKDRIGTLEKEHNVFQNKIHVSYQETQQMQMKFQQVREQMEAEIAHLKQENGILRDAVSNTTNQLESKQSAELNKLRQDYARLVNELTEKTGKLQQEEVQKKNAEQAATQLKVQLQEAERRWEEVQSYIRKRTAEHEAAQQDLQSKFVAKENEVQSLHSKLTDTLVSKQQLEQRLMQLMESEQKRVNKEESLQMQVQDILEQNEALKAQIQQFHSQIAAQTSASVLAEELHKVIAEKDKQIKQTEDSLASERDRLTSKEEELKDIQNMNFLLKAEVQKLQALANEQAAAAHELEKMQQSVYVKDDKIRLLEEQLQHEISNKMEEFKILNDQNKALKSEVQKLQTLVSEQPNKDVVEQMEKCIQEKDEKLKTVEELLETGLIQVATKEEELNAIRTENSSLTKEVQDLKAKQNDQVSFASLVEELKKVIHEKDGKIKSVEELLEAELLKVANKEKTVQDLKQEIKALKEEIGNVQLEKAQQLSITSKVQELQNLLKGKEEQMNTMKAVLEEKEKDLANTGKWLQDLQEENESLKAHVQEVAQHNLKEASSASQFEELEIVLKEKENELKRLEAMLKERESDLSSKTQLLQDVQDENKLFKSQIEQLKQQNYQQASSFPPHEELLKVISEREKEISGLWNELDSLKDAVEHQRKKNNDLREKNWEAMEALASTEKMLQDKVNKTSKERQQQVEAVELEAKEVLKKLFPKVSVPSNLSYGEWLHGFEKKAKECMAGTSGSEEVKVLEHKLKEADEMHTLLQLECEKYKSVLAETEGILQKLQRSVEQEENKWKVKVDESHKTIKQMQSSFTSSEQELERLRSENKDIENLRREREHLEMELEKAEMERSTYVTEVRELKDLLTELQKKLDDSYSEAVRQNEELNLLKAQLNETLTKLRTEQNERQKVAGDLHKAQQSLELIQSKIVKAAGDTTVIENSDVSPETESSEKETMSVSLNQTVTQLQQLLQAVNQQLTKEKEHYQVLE
Assay: co-IP; MDA-MB-231 and BT-549 lysates (nucleus and cytoplasm) from cells with KTN1 overexpression or negative control vector; Pierce Co-Immunoprecipitation Kit; 20 µg total-KTN1 antibody, 1 µg normal mouse IgG as negative control; Western blot detection

binding: binds
Substance: NF-κB/p65 (from UniProt Q04206 1-551)
